Laboratory results: PubChem BioAssay AID1159584 (Peter MacCallum Cancer Centre, 2016)
Purpose: 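Knock-downs that harm CDH1-null cells more than parental MCF10A cells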 (primary screen). Cells: human MCF10A breast epithelial cells, parental and CDH1-null. Reagent: siRNA against human genes. Measurement: 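ATP luminescence (CellTiter-Glo) viability per line relative to mean mock wells over all plates, and the ratio of CDH1-null to parental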. Reading the numbers: CDH1-null / parental viability ratio: higher = CDH1-null cells survive relatively better than parental; CDH1-null viability vs mock: higher = more viable CDH1-null cells. Units: CDH1-null viability vs mock in fraction of mock.
This is a random part of about 18,000 reagents. Further read-outs or replicates are left out here. The record does not give: the amount of reagent, the time to read-out.

ACTL6A (actin like 6A) scored CDH1-null / parental viability ratio 1.04; CDH1-null viability vs mock 0.88. POLD1 (DNA polymerase delta 1, catalytic subunit) scored CDH1-null / parental viability ratio 0.99; CDH1-null viability vs mock 0.87. Silencing of KHK (ketohexokinase) resulted in: CDH1-null / parental viability ratio 0.83; CDH1-null viability vs mock 0.82. Knock-down of OGFR (opioid growth factor receptor) came out at: CDH1-null / parental viability ratio 0.95; CDH1-null viability vs mock 0.42. For GARS1 (glycyl-tRNA synthetase 1), the entry reads CDH1-null / parental viability ratio 1.04; CDH1-null viability vs mock 0.95. PCCA (propionyl-CoA carboxylase subunit alpha) gave CDH1-null / parental viability ratio 0.8; CDH1-null viability vs mock 0.74.

Depletion of LINC00173 (long independently transcribed non-coding RNA 173) came out at: CDH1-null / parental viability ratio 1.11; CDH1-null viability vs mock 1.04. With knock-down of CFH (complement factor H), the record shows CDH1-null / parental viability ratio 1; CDH1-null viability vs mock 0.92. Against MINDY1 (MINDY lysine 48 deubiquitinase 1), the entry reads CDH1-null / parental viability ratio 1.03; CDH1-null viability vs mock 0.92. Depletion of RNF166 (ring finger protein 166) gave: CDH1-null / parental viability ratio 1; CDH1-null viability vs mock 0.94. DLL4 (delta like canonical Notch ligand 4) scored CDH1-null / parental viability ratio 1.14; CDH1-null viability vs mock 0.73. Against SLC22A6 the deposit lists CDH1-null / parental viability ratio 1.04; CDH1-null viability vs mock 0.77.

ZNF26 (zinc finger protein 26) showed CDH1-null / parental viability ratio 1.21; CDH1-null viability vs mock 1.02. For CBX5 (chromobox 5) the deposit lists CDH1-null / parental viability ratio 1; CDH1-null viability vs mock 0.28. With knock-down of RMC1 (regulator of MON1-CCZ1), the screen gave CDH1-null / parental viability ratio 1.29; CDH1-null viability vs mock 1.34. After knock-down of SAMTOR (S-adenosylmethionine sensor upstream of mTORC1), the screen gave CDH1-null / parental viability ratio 1.1; CDH1-null viability vs mock 0.8. PNPLA8 (patatin like domain 8, phospholipase A2) showed CDH1-null / parental viability ratio 0.87; CDH1-null viability vs mock 0.92. ODAD4 (outer dynein arm docking complex subunit 4) scored CDH1-null / parental viability ratio 0.88; CDH1-null viability vs mock 0.42.

HSP90AA1 (heat shock protein 90 alpha family class A member 1) showed CDH1-null / parental viability ratio 1; CDH1-null viability vs mock 1.02. After knock-down of SYPL1 (synaptophysin like 1), the screen gave CDH1-null / parental viability ratio 1.03; CDH1-null viability vs mock 0.97. Depletion of CTTNBP2 (cortactin binding protein 2) gave: CDH1-null / parental viability ratio 0.77; CDH1-null viability vs mock 0.64. Depletion of PPP3CA (protein phosphatase 3 catalytic subunit alpha) came out at: CDH1-null / parental viability ratio 1.42; CDH1-null viability vs mock 0.81. With knock-down of PPP2R5D (protein phosphatase 2 regulatory subunit B'delta) the results were CDH1-null / parental viability ratio 1.27; CDH1-null viability vs mock 0.89. Against CLDN6 (claudin 6), the values are CDH1-null / parental viability ratio 1.02; CDH1-null viability vs mock 0.59.

Knock-down of MMP10 (matrix metallopeptidase 10) resulted in: CDH1-null / parental viability ratio 1.5; CDH1-null viability vs mock 0.66. Against NAT1 (N-acetyltransferase 1), the values are CDH1-null / parental viability ratio 0.91; CDH1-null viability vs mock 0.95. After knock-down of TACC2 (transforming acidic coiled-coil containing protein 2), the screen gave CDH1-null / parental viability ratio 0.72; CDH1-null viability vs mock 0.62. After knock-down of KRTAP12-1 (keratin associated protein 12-1), the record shows CDH1-null / parental viability ratio 0.93; CDH1-null viability vs mock 0.78. ASB11 (ankyrin repeat and SOCS box containing 11) scored CDH1-null / parental viability ratio 0.99; CDH1-null viability vs mock 0.81. With knock-down of LGALS9C (galectin 9C), the screen gave CDH1-null / parental viability ratio 0.95; CDH1-null viability vs mock 0.74.

Depletion of PPP2R2B (protein phosphatase 2 regulatory subunit Bbeta) gave: CDH1-null / parental viability ratio 1.2; CDH1-null viability vs mock 0.84. After knock-down of WBP2NL (WBP2 N-terminal like), the record shows CDH1-null / parental viability ratio 0.9; CDH1-null viability vs mock 0.98. LCE3E (late cornified envelope 3E) scored CDH1-null / parental viability ratio 0.94; CDH1-null viability vs mock 0.76. With knock-down of LDHB (lactate dehydrogenase B) the results were CDH1-null / parental viability ratio 1.02; CDH1-null viability vs mock 0.87. Depletion of UBTF (upstream binding transcription factor) came out at: CDH1-null / parental viability ratio 1; CDH1-null viability vs mock 0.92.

Part of the list above, reformatted.
{"gene symbol":"ZNF26 (zinc finger protein 26)","CDH1-null / parental viability ratio":1.21,"CDH1-null viability vs mock":1.02}
{"gene symbol":"CBX5 (chromobox 5)","CDH1-null / parental viability ratio":1,"CDH1-null viability vs mock":0.28}
{"gene symbol":"RMC1 (regulator of MON1-CCZ1)","CDH1-null / parental viability ratio":1.29,"CDH1-null viability vs mock":1.34}
